Results: article PMC12492975
Results are given in words; binding and its absence hold for the method and conditions named. Binding seen in cells or lysates may run through a third protein.

Amino acid sequences for entries named in this document (tags omitted).
UniProt Q709C8: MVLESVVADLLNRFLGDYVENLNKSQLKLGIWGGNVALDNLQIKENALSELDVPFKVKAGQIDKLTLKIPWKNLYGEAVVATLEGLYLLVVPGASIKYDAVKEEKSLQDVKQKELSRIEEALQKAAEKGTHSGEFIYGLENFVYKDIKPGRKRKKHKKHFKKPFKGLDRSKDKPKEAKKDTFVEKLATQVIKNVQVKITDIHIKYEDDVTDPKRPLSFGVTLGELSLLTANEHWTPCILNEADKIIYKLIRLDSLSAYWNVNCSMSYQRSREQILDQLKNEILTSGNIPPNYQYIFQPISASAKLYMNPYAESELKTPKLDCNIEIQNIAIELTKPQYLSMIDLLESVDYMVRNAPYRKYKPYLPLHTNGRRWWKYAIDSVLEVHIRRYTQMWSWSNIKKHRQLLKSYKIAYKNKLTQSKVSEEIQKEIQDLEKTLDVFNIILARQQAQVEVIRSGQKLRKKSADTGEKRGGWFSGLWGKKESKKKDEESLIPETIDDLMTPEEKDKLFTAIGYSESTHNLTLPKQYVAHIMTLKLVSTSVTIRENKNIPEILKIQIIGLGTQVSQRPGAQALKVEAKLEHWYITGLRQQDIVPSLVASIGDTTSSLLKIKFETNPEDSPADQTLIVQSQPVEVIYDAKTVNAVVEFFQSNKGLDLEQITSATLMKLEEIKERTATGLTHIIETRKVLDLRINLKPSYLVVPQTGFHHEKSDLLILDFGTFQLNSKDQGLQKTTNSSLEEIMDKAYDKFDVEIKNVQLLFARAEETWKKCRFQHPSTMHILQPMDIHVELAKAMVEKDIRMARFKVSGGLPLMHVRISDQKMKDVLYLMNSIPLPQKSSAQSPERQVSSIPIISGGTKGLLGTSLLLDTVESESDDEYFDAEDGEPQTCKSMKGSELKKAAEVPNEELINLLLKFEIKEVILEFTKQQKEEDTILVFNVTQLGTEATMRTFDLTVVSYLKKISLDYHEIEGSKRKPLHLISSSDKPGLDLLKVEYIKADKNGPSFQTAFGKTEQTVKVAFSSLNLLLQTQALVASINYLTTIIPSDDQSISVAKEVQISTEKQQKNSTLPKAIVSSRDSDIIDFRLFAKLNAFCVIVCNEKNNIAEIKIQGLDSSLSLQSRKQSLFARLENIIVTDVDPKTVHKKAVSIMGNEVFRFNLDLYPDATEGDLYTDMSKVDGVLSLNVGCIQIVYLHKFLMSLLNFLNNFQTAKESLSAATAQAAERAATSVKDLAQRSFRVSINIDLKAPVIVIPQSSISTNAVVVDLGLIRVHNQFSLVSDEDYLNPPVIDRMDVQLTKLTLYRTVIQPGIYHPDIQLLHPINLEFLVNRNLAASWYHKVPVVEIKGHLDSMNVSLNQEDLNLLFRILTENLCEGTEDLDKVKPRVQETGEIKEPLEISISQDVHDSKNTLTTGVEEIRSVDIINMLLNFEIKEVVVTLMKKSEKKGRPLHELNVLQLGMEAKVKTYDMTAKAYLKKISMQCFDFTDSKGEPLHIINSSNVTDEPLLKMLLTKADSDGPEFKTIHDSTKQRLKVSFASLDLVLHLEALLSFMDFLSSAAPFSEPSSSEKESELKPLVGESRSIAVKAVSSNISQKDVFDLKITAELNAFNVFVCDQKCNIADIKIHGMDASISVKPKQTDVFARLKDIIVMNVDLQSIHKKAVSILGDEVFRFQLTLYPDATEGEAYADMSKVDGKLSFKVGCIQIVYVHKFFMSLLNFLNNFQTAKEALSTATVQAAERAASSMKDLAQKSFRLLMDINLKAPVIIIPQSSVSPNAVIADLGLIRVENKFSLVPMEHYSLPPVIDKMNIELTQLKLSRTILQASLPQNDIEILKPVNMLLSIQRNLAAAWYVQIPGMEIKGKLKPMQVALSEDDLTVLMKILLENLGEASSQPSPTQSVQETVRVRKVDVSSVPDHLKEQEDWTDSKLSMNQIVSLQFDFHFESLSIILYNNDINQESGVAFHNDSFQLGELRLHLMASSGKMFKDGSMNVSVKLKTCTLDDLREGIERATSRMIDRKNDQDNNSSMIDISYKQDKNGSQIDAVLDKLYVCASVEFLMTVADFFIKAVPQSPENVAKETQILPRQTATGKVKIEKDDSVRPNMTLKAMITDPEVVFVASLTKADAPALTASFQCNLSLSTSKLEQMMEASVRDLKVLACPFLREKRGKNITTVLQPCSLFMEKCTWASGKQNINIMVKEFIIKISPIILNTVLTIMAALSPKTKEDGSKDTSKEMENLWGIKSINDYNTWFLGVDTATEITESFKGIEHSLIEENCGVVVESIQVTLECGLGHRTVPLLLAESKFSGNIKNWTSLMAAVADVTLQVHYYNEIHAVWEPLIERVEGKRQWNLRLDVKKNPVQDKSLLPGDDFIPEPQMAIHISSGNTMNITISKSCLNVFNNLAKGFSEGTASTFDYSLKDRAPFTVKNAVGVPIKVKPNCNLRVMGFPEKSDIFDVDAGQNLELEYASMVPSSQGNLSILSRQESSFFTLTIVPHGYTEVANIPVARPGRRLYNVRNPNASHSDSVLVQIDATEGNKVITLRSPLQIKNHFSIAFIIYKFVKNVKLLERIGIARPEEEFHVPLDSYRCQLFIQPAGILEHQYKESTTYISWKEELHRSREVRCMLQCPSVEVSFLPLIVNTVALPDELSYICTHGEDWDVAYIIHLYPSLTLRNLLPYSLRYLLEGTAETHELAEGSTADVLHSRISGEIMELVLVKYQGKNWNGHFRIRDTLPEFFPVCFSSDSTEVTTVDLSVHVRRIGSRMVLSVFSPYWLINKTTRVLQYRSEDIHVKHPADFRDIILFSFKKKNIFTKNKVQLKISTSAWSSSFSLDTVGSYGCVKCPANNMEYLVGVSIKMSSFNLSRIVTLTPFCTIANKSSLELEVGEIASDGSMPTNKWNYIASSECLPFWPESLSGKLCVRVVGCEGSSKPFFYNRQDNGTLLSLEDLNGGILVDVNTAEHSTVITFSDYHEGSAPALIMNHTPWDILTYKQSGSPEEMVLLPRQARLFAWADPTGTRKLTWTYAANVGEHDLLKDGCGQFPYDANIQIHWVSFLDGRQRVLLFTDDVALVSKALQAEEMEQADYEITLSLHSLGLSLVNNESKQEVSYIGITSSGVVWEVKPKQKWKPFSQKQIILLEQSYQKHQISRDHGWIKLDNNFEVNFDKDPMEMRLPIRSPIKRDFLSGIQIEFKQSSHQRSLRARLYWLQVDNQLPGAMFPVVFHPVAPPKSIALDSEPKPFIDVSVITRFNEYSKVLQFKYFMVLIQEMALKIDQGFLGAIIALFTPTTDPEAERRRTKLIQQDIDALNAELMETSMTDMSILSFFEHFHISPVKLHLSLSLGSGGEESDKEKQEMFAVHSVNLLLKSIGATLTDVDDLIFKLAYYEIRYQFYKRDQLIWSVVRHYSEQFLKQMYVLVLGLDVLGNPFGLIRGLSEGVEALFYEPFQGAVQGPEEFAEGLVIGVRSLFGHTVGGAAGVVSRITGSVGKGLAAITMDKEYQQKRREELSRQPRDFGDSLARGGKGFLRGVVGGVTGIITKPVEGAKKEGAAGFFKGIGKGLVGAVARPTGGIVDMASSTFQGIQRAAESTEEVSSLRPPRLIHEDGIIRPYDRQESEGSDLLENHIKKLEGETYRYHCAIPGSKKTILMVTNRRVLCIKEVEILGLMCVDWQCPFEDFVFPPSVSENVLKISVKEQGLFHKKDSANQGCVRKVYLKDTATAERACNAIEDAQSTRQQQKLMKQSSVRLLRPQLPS

Assays:
[1] = molecular target: VPS13C (human (endogenous in HeLa)) (UniProt Q709C8); assay: co-IP
VPS13C^mClover3 = VPS13C^mClover3 (UniProt Q709C8); assay: co-IP

B1: SopD2-RFP (protein, UniProt Q8ZQC8 1-319)
chain: MPVTLSFGNRHNYEINHSRLARLMSPDKEEALYMGVWDRFKDCFRTHKKQEVLEVLYTLIHGCERENQAELNVDITGMEKIHAFTQLKEYANPSQQDRFVMRFDMNQTQVLFEIDGKVIDKCNLHRLLNVSENCIFKVMEEDEEELFLKICIKYGEKISRYPELLEGFANKLKDAVNEDDDVKDEVYKLMRSGEDRKMECVEWNGTLTEEEKNKLRCLQMGSFNITTQFFKIGYWELEGEVLFDMVHPTLSYLLQAYKPSLSSDLIETNTMLFSDVLNKDYDDYQNNKREIDAILRRIYRSHNNTLFISEKSSCRNMLI
- binding [1]: no binding
- binding (VPS13C^mClover3): no binding
